# Measurements reported in PubChem BioAssay AID540276 (National Center for Advancing Translational Sciences (NCATS), 2011).
# Hit rate of the full screen: of about 300,000 compounds, about 5,400 (1.8%) were called active. Inconclusive means that the source gave no clear call. Such entries were picked first, then a sample of the others. The call rests on the fitted dose curve; tested in HEK293 cells. A potency beside an inconclusive call is a rough fit, not a confirmed value.
# Assay: qHTS for inhibitors of binding or entry into cells for Marburg Virus
# Details: Marburg virus pseudotyped entry inhibition, cell reporter; series mostly up to 37.8 µM
# Potency means the concentration at half of the fitted maximal effect.
row,Structure (SMILES),Potency
1,CN(C(=O)c1ccccn1)c1nnc(-c2cnccn2)s1,inactive
2,COc1ccccc1/C=C/C(=O)/C=C/c1ccccc1O,"inconclusive: 12.6 µM [inhibitor, partial curve, poor fit]"
3,O=C(Cc1ccc([N+](=O)[O-])cc1)Nc1ccc2c(c1)OCO2,"inconclusive: 12.6 µM [activator, single point]"
4,CCN(CC)C(=O)/C(=C/c1ccc(F)cc1)NC(C)=O,"inconclusive: 0.447 µM [activator, partial curve, poor fit]"
5,Nc1nc(-c2ccc(Cl)cc2)nn1C(=O)c1cccs1,inactive
6,Cc1ccc(Cc2c(C)nc3nc(SCC(=O)NCCC(C)C)nn3c2C)cc1,inactive
7,Cc1ccc(CN(C)C(=O)c2ccc(NS(=O)(=O)c3ccc4[nH]c(=O)[nH]c4c3)cc2)cc1,"inconclusive: 6.31 µM [activator, partial curve]"
8,COCCCN(Cc1ccco1)C(=O)c1cc2c(s1)-c1ccccc1OC2,inactive
9,O=C1N=C(N2CCCCC2)SC1=C1CCCCC1,inactive
10,CCC(=O)Nc1ccc(C(=O)NNC(=O)COc2cccc(C)c2)cc1,"inconclusive: 0.891 µM [activator, full curve, poor fit]"
11,O=C1CC(Sc2nnnn2-c2ccccc2)C(=O)N1c1cccc(Cl)c1 (centres undefined),"inconclusive: 15.8 µM [inhibitor, partial curve]"
12,CC(C)Cn1c(=O)c2ccccc2n2c(CCC(=O)N3CCN(c4cccc(Cl)c4)CC3)nnc12,"inconclusive: 11.2 µM [inhibitor, partial curve, poor fit]"
13,Cc1nn(-c2ccccc2)c(N)c1Sc1cccc([N+](=O)[O-])c1,inactive
14,CCN(CC(=O)NCc1ccc(Cl)cc1)C(=O)c1cc2ccccc2o1,inactive
15,CN(C)C(=S)N=c1ssc(=S)n1Cc1ccco1,"inconclusive: 5.01 µM [inhibitor, partial curve, poor fit]"
16,COC(=O)c1ccc(-n2c(C)cc(/C=N/n3cnnc3)c2C)cc1,"inconclusive: 0.316 µM [activator, partial curve, poor fit]"
17,COc1ccc(-c2ccc3ccccc3n2)cc1,"inconclusive: 3.16 µM [inhibitor, full curve, poor fit]"
18,COc1ccc(/C=N/NC(=O)c2ccc(Cl)cc2Cl)cc1COC(C)=O,"inconclusive: 29.1 µM [inhibitor, single point]"
19,Cc1ccc(NC(=O)c2cc(-c3ccco3)on2)cc1,"inconclusive: 20.6 µM [activator, partial curve, poor fit]"
20,CO/N=C/c1ccc(Oc2ccc(C)cc2)c([N+](=O)[O-])c1,"inconclusive: 7.08 µM [activator, partial curve, poor fit]"
21,Cc1ccc(C(C)(C)C)c(OCCOCCN2CCCC2)c1,active: 11.6 µM
22,Cc1ccc(C(=O)Nc2ccc3c(c2)CCC3)cc1,"inconclusive: 1.83 µM [inhibitor, full curve, poor fit]"

row,Structure (SMILES),Potency
1,COc1ccccc1C(=O)N1CCc2ccccc21,inactive
2,COc1ccc(CNC(=O)Cn2nc(C)n3cccc3c2=O)cc1,"inconclusive: 11.2 µM [inhibitor, partial curve, poor fit]"
3,O=C(Nc1cc2c(cc1Cl)-c1ccc([N+](=O)[O-])cc1C2=NO)C(F)(F)F,inactive
4,CC12CCC(=O)N1C(C(=O)Nc1nc(-c3ccccc3Cl)cs1)CS2 (centres undefined),"inconclusive: 35.5 µM [inhibitor, single point]"
5,COc1ccc(-c2nc(SCC(=O)NC3CCCC3)c(-c3ccc(OC)cc3)[nH]2)cc1,"inconclusive: 25.9 µM [inhibitor, single point]"
6,CCCCC(=O)Nc1ncc2c(n1)CC(C)(C)CC2=O,"inconclusive: 3.16 µM [inhibitor, single point]"
7,CC(C)COc1ccc(C(=O)Nc2ccc(NC(=O)c3ccco3)c(Cl)c2)cc1,"inconclusive: 35.5 µM [inhibitor, single point]"
8,Cc1nc(-c2cccc(S(=O)(=O)N3CCOCC3)c2)cs1,inactive
9,Cc1ccc(C2C=C(c3ccccc3)Nc3nc(N4C(=O)CCC4=O)nn32)cc1 (centres undefined),inactive
10,O=C(NC1CCCC1)c1ncn[nH]1,"inconclusive: 14.1 µM [activator, single point]"
11,Cc1cccc(NC(=O)c2ccc([N+](=O)[O-])o2)c1,"inconclusive: 16.4 µM [inhibitor, partial curve, poor fit]"
12,CC1CCN(C(=O)c2ccc3c(c2)N(Cc2ccccc2F)C(=O)c2ccccc2S3(=O)=O)CC1,inactive
13,COc1ccc(-c2nn(CCC(=O)O)cc2/C=C2\SC(N)=NC2=O)cc1OC,"inconclusive: 31.6 µM [activator, single point]"
14,COc1ccc(C(=S)N2CCOCC2)cc1OC(=O)c1ccc([N+](=O)[O-])cc1[N+](=O)[O-],"inconclusive: 31.6 µM [inhibitor, single point]"
15,N[C@@H](CO)C(=O)NNCc1ccc(O)c(O)c1O,inactive
16,N#C/C(=C\c1ccc(Cl)cc1)C(=O)Nc1cccnc1,inactive
17,O=C(Oc1cc2oc(=O)c3c(c2cc1Cl)CCCC3)c1ccco1,"inconclusive: 0.058 µM [inhibitor, full curve, poor fit]"
18,Cc1cccc(-c2nc(CN3C(=O)CN=C(c4ccccc4)c4ccccc43)c(C)o2)c1,"inconclusive: 11.2 µM [inhibitor, partial curve, poor fit]"
19,COC(=O)[C@@]1(Cc2ccc(F)cc2)[C@H]2c3cc(C(=O)N(C)C)n(Cc4c(CO)[nH]cc(C)c4=O)c3C[C@H]2CN1C(=O)c1ccccc1,inactive
20,COc1ccc(NC(=O)c2cc3c(Cl)nc4ccccc4c3s2)cc1OC,"inconclusive: 1.16 µM [activator, single point]"
21,O=C(NCc1cccnc1)c1ccc(NC(=O)c2ccco2)cc1,"inconclusive: 23.1 µM [activator, single point]"
22,CN(Cc1ccccc1)C(=C(Cl)Cl)/C(=C1/NCCN1Cc1ccc(Cl)nc1)[N+](=O)[O-],"inconclusive: 29.1 µM [inhibitor, single point]"

# A few values from above.
# Entry for COc1ccc(NC(=O)c2cc3c(Cl)nc4ccccc4c3s2)cc1OC under Potency: inconclusive: 1.16 µM [activator, single point]
# Entry for Cc1cccc(-c2nc(CN3C(=O)CN=C(c4ccccc4)c4ccccc43)c(C)o2)c1 under Potency: inconclusive: 11.2 µM [inhibitor, partial curve, poor fit]
